From PMC4408008 come the findings set out here.

Chains of the proteins cited; added tags and fusions are not shown. Lines headed by an entry give the natural chain unless they say otherwise; changes in a name come on top. A line that says so, or that is headed by a name, gives the form on record, which may keep a tag or linker.
UniProt Q12888: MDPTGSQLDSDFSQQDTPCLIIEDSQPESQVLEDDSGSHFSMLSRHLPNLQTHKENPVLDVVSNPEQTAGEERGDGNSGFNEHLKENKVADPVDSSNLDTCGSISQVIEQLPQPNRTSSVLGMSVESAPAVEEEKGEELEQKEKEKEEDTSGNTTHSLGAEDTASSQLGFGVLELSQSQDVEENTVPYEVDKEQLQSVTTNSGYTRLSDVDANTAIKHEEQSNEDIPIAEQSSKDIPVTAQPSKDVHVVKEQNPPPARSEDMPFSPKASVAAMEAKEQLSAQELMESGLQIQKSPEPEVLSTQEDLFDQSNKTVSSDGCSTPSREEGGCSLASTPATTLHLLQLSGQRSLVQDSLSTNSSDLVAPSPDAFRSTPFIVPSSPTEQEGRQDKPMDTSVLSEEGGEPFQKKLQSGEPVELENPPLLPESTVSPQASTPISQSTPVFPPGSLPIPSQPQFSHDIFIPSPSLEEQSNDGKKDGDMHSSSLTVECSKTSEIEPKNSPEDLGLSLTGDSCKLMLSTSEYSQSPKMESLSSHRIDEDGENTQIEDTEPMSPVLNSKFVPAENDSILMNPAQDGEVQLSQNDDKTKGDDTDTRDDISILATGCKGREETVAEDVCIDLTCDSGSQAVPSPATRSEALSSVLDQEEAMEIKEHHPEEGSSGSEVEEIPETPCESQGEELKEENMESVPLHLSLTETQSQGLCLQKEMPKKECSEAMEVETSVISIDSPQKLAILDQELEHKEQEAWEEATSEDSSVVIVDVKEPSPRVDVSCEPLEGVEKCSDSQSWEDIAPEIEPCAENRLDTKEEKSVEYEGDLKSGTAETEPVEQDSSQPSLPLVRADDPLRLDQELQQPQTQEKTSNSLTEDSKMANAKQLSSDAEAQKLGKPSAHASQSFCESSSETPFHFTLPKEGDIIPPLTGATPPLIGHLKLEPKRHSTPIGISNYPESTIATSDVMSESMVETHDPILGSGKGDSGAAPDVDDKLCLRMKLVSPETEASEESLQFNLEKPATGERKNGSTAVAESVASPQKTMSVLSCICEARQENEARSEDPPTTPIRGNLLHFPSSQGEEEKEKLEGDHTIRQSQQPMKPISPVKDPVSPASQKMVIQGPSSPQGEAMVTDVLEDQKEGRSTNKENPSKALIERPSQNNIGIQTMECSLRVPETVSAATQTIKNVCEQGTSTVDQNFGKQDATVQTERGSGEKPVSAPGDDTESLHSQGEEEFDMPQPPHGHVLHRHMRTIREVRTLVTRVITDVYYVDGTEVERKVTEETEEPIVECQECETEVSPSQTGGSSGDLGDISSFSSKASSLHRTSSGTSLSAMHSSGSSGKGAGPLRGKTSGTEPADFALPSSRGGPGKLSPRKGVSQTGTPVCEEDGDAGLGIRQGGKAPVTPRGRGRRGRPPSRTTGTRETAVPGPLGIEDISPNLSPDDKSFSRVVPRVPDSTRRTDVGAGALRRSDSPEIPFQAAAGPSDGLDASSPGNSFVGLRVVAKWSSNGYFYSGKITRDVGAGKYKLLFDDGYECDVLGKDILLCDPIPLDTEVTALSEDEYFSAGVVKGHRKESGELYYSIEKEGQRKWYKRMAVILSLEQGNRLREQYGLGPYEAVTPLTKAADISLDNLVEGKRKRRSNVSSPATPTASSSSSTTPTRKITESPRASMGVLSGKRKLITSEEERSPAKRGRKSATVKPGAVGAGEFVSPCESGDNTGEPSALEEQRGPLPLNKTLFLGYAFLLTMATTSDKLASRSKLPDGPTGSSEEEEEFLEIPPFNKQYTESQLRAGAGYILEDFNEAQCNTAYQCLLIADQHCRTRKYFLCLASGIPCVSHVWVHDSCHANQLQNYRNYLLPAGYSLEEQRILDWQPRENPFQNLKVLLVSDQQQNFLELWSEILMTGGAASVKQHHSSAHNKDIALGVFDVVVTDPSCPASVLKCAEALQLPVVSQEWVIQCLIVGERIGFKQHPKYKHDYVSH
UniProt Q96EB6: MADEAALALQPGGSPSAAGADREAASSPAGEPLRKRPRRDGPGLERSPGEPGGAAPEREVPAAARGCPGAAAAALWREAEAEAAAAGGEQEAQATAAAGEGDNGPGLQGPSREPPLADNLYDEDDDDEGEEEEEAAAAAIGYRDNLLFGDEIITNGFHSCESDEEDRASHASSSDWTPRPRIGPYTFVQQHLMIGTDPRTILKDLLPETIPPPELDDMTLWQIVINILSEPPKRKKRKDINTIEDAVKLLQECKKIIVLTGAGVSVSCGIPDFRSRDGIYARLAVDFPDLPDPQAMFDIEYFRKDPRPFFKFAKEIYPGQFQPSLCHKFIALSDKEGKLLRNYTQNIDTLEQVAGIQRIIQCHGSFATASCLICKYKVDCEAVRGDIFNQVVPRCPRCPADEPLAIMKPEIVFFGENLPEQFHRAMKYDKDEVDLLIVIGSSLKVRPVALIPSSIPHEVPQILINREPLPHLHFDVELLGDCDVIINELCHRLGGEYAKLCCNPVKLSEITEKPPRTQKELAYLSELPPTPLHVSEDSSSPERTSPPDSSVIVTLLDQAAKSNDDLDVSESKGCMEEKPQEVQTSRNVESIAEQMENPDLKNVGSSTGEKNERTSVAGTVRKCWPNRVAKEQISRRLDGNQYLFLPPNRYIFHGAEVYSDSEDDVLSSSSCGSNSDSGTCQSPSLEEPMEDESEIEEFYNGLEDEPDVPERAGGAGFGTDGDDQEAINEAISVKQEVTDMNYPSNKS
FLAG-tagged SIRT1 deletion mutant Δ3 (deletion in 143-213 a.a) (Q96EB6, form named): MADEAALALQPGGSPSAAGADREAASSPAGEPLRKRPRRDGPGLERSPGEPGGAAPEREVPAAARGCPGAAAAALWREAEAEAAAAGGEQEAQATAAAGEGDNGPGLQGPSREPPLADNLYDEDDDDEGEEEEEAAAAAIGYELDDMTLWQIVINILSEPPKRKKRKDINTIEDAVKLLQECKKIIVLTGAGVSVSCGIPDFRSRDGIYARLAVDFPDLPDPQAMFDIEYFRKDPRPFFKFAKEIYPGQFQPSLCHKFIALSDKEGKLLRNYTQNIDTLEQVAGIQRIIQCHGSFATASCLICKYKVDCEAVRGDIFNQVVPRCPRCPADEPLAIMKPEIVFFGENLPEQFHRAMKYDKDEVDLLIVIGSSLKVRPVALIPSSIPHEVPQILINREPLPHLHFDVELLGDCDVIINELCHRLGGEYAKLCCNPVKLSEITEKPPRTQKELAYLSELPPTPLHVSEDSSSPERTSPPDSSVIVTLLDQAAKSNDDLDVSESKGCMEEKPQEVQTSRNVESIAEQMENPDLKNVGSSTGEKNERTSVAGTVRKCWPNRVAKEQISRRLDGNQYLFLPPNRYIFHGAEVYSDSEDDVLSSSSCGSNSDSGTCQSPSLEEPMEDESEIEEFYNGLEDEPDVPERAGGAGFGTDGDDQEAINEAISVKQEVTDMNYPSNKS
FLAG-tagged SIRT1 deletion mutant Δ6 (deletion in 378-458 a.a) (Q96EB6, form named): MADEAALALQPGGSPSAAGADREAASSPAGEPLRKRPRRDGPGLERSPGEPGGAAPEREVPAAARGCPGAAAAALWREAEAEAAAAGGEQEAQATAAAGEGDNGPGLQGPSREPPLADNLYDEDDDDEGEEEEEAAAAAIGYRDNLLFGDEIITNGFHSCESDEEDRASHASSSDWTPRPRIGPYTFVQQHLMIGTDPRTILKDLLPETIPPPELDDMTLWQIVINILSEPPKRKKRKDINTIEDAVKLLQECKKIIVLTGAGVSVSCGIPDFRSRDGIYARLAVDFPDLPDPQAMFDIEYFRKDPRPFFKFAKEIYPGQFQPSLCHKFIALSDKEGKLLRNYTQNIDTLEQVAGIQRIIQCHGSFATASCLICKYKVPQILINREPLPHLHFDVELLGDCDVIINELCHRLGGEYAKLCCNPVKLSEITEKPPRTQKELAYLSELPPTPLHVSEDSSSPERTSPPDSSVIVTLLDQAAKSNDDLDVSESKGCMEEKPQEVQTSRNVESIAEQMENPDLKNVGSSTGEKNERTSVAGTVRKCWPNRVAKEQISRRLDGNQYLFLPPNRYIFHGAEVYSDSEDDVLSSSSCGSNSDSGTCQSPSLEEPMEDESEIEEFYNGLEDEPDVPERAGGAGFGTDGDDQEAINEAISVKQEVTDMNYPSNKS
UniProt Q13263: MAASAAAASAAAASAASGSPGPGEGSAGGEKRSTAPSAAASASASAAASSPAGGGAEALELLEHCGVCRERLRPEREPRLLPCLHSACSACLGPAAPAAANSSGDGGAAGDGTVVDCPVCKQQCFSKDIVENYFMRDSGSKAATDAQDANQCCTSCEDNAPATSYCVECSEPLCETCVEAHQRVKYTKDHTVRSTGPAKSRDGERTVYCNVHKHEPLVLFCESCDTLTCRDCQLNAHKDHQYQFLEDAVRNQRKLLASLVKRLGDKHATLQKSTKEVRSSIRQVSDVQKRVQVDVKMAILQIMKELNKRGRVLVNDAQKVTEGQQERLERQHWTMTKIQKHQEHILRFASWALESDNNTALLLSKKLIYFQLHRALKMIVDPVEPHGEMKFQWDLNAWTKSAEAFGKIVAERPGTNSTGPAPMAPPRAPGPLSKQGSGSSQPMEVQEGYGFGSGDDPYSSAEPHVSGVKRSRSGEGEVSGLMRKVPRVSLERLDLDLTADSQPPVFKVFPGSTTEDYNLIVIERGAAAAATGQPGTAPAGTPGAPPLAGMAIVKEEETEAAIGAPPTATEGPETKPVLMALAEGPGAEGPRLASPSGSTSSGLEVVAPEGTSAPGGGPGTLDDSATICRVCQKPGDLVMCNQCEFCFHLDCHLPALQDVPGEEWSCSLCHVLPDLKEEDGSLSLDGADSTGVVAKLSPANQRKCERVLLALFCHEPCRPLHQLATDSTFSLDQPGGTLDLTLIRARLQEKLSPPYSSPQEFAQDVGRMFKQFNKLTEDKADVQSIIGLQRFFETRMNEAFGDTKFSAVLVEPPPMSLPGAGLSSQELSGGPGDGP

In test [1] the target is p53-binding protein 1 (53BP1), endogenous (human (endogenous in HEK293T)) (UniProt Q12888). Put plainly: co-IP; FLAG-tagged WT-KAP1 or 4KR in KAP1 depleted HEK293T cells, harvested 1 hour following 10Gy-IR (with or without IR), anti-53BP1 immunoprecipitation, immunoblotting. For orientation: A western blot detects proteins with antibodies after separation by electrophoresis.

For test [2], the target named is FLAG-tagged full-length (FL) SIRT1 (UniProt Q96EB6). Put plainly: co-IP; HEK293T cells transfected with FLAG-tagged bait (KAP1, SIRT1 or SIRT1 deletion mutants; GAL4-tagged KAP1 co-transfected where named), lysed, immunoprecipitated with anti-FLAG antibody, western blot.
Test [3] concerns the target FLAG-tagged SIRT1 deletion mutant Δ3 (deletion in 143-213 a.a) (UniProt Q96EB6). The description is as above.
The target in test [4] is FLAG-tagged SIRT1 deletion mutant Δ6 (deletion in 378-458 a.a) (UniProt Q96EB6). Described as above.

No constants are given. Whether binding was seen depends on the method and setting. Binding seen in cells or lysates may run through a third protein. Some binding calls cover weakened binding; strength is not graded here.

As to “FLAG-tagged KAP1 (from UniProt Q13263 1-835)”, the binding entry in test [1] is recorded as “binds”.
Turning to “GAL4-tagged full-length (FL) KAP1 (from UniProt Q13263 1-835)”, in test [2], the binding result is recorded as “binds”.
Take “Krüppel associated box (KRAB)-associated protein 1 (KAP1), endogenous (from UniProt Q13263 1-835)”: the binding result in test [3] was “no binding”; in test [4], “no binding”; in test [2] it was “binds”.
